Source: PubChem BioAssay AID540303 (National Center for Advancing Translational Sciences (NCATS), 2011)
Several values for one entry are separate records, joined by “and”; a condition that tells them apart may be missing. Equal values may be shown once. The campaign covered roughly 330,000 compounds. About 1,000 (0.3%) were called active. The inconclusive results got no clear call from the source; some entries with a clear call stand among them for comparison. Calls come from the whole dose curve; as a rule, active = well fitted inhibition curve with a large enough effect; inconclusive = small, poorly fitted or top-dose-only effect; inactive = no such curve, though single readings can be large or run the other way; tested in mouse RAW 264.7 cells. Where the call is inconclusive, the potency comes from a doubtful curve fit.

Assay: qHTS for Inhibitors of Cell Surface uPA Generation; note: nearly all actives have a fitted effect of over 55% in size
Conditions: cell surface uPA generation assay; series mostly up to 38.3 µM; activity change, negative = inhibition: at the top concentration
Method in brief: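 RAW 264.7 cells (4000/well) were plated overnight at 37 C and then given compounds in a 1:5 series (up to 38.3 uM final) plus reagent for 24 h. Intracellular ATP was measured by ATP-Lite luminescence and stays elevated when uPA-dependent LF entry is blocked.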
% is set by controls: 0 for no effect and ±100 for the full control effect; potency is the fitted concentration of half-maximal effect.

Structure (SMILES)	activity change, negative = inhibition	Potency
Cc1cc(/C=N/Nc2nc(N3CCOCC3)nc(N3CCOCC3)n2)c(C)n1-c1ccccc1	inactive: -3.15%	
CC(=O)NNC(=S)NC(=O)C(c1ccccc1)c1ccccc1		inconclusive: 12.6 µM [inhibitor, single point]
O=C(NCCN1CCOCC1)c1ccc(/C=C2\Sc3ccccc3N(Cc3ccccc3F)C2=O)cc1		inconclusive: 10 µM [inhibitor, partial curve, poor fit]
CCc1ccc(-c2cc(C(=O)Nn3cnnc3)c3ccccc3n2)cc1		inconclusive: 0.0126 µM [inhibitor, full curve, poor fit]
Cc1ccc(C)c(N2CCN(C(=O)C(Cc3ccccc3)n3cccc3)CC2)c1 (stereo unspecified)		inconclusive: 7.08 µM [inhibitor, single point]
CSc1nc(Cl)cc(=O)[nH]1		inconclusive: 5.01 µM [inhibitor, single point]
Cc1ccc(Nc2nnc(SCC(=O)c3c(N)n(C4CC4)c(=O)[nH]c3=O)s2)cc1C		inconclusive: 28.2 µM [inhibitor, single point]
Cc1ccc(S(=O)(=O)Nc2cccc(C(=O)NCc3cccnc3)c2)cc1F		active: 3.16 µM
O=C1ON=C(c2ccccc2)/C1=C/c1ccc(OS(=O)(=O)c2ccccc2)cc1	inactive: -2.85%	
COc1ccc(S(=O)(=O)N2CCC(n3cnc4cc(C(F)(F)F)ccc43)CC2)cc1	inactive: 3.77%	
O=C1c2cccc3cccc(c23)C(=O)N1CC1CCN(CC(O)COc2ccc3ccccc3c2)CC1 (stereo unspecified)		inconclusive: 10 µM [inhibitor, single point]
CN(C)c1ccc(/C=C/c2ccc3ccccc3n2)cc1		active: 2 µM
CCCCN1C(=O)C(=O)N(CC(=O)Nc2sc(C)c(C)c2C(=O)OC)C1=O		inconclusive: 3.16 µM [inhibitor, partial curve, poor fit]
Cc1ccc(C(C)C)c(OCCCNCc2cccnc2)c1	inactive: -1.76%	
Cc1ccnc(NC(=O)c2cccc(S(=O)(=O)N3CCCc4ccccc43)c2)c1		inconclusive: 5.01 µM [inhibitor, single point]
Cc1cc(Cl)ccc1C(=O)C1CCCN(C(=O)c2cnsn2)C1 (stereo unspecified)	inactive: 9.38%	
O=C(CCN1CCN(c2ccccc2)CC1)N/N=C/c1ccccc1OC(F)F	inactive: -0.517%	
O=[N+]([O-])c1ccccc1S(=O)(=O)N1CCN(C2CCN(Cc3ccccc3)CC2)CC1		inconclusive: 0.794 µM [inhibitor, full curve, poor fit]
COCCN(C(=O)COC(=O)c1ccc(-c2ccccc2)cc1)c1c(N)n(Cc2ccccc2)c(=O)[nH]c1=O	inactive: -3.07%	
COc1cc2sc3ccc(C#CC4(O)CCCCC4)cc3c(=O)c2cc1OC		inconclusive: 2.82 µM [inhibitor, full curve]
COc1ccc(-n2ncc3c(N4CCC(C)CC4)ncnc32)cc1		inconclusive: 3.98 µM [inhibitor, partial curve, poor fit]
O=S(=O)(c1cccc(Cl)c1)N1CCSc2ccccc21		inconclusive: 0.794 µM [inhibitor, full curve, poor fit]

Three compounds already listed, ordered by SMILES length, low to high:
Structure (SMILES)	activity change, negative = inhibition	Potency
Cc1ccc(C)c(N2CCN(C(=O)C(Cc3ccccc3)n3cccc3)CC2)c1 (stereo unspecified)		inconclusive: 7.08 µM [inhibitor, single point]
Cc1cc(/C=N/Nc2nc(N3CCOCC3)nc(N3CCOCC3)n2)c(C)n1-c1ccccc1	inactive: -3.15%	
O=C1c2cccc3cccc(c23)C(=O)N1CC1CCN(CC(O)COc2ccc3ccccc3c2)CC1 (stereo unspecified)		inconclusive: 10 µM [inhibitor, single point]

Carrying on.

Structure (SMILES)	activity change, negative = inhibition	Potency
O=C(Nc1nccs1)c1ccc(NC(=O)C2CC=CCC2C(=O)O)cc1 (stereo unspecified)		inconclusive: 0.891 µM [inhibitor, full curve]
CCc1ccc(Nc2nnc(SCC(=O)NC(=O)c3cccn3C)s2)cc1		inconclusive: 3.98 µM [inhibitor, partial curve, poor fit]
O=C(O)CN1C(=O)/C(=C/C=C/c2ccccc2)SC1=S		inconclusive: 10 µM [inhibitor, partial curve, poor fit]
O=C1NC(c2ccccc2)=C(c2nc3ccccc3s2)C(c2ccc(O)cc2)N1 (stereo unspecified)		inconclusive: 7.94 µM [inhibitor, single point]
O=C1CC(C(=O)N2CCN(c3ccccc3)CC2)CN1Cc1ccccc1 (stereo unspecified)	inactive: -7.25%	
CCCC[C@H](CN[C@@H](CNC)[C@H](C)CC)NCCC12CCC(CC1)C2		inconclusive: 4.47 µM [inhibitor, partial curve, poor fit]
COc1ccc(C)cc1S(=O)(=O)n1cnc2ccccc21		inconclusive: 6.31 µM [inhibitor, partial curve]
CCOc1ccc(-c2c(C(=O)N/N=C/c3ccc(C)cc3)nnn2-c2nonc2N)cc1		inconclusive: 11.2 µM [inhibitor, partial curve, poor fit]
C(=N\Nc1ccccn1)/c1ccc2c(c1)OCCO2	inactive: -10.4%	
COc1cc2c(cc1OC)C(C)N(C(=O)c1c(-c3ccccc3)noc1C)CC2 (stereo unspecified)		active: 6.31 µM
COc1ccc(CN2CCN(C(c3ccc(F)cc3)c3ccc(F)cc3)CC2)c(OC)c1OC		inconclusive: 6.31 µM [inhibitor, single point]
COc1ccc(-c2cc(C(=O)N3CCCCCC3)c3ccccc3n2)cc1		inconclusive: 3.55 µM [inhibitor, partial curve, poor fit]
COc1ccc(S(=O)(=O)N2CCOCC2)cc1C(=O)Nc1ccc(N2CCCCCC2)cc1		inconclusive: 7.94 µM [inhibitor, partial curve, poor fit]
CCOC(=O)C1(CCOc2ccccc2)CCN(Cc2ccc(O)c(OC)c2)CC1		inconclusive: 12.6 µM [inhibitor, single point]
COC(=O)c1cc(-c2c(-c3cc(OC)c(OC)c(OC)c3)noc2C)cc([N+](=O)[O-])c1		inconclusive: 5.62 µM [inhibitor, partial curve, poor fit]
COc1cc(N2N=C(c3ccccc3)CC2c2ccccc2)c(C=O)cc1C=O (stereo unspecified)	inactive: 5.24%	
CCOC(=O)N1CCC(=NNC(=O)c2ccccc2F)CC1	inactive: -0.192%	
O=C(/C=C/Nc1cccc(O)c1)c1ccccc1		inconclusive: 10 µM [inhibitor, partial curve, poor fit]
O=C(Nc1ccc(NC(=O)c2ccc3c(c2)OCO3)cc1)c1cccc(Cl)c1		inconclusive: 3.55 µM [inhibitor, partial curve, poor fit]
CCS(=O)(=O)N1CCC(C(=O)NCCC2=CCCCC2)CC1	inactive: -0.391%	
O=C(Nc1ccc(F)cc1F)c1ccc2c(=O)n3c(nc2c1)CCC3		inconclusive: 5.62 µM [inhibitor, single point]
COC1=CC(=O)C=C(OC)C1=O		inconclusive: 1.12 µM [inhibitor, full curve, poor fit]

Among those listed so far, 15 have a carbonyl joined to an NH by a bond outside any ring.
Structure (SMILES)	activity change, negative = inhibition	Potency
CC(=O)NNC(=S)NC(=O)C(c1ccccc1)c1ccccc1		inconclusive: 12.6 µM [inhibitor, single point]
O=C(NCCN1CCOCC1)c1ccc(/C=C2\Sc3ccccc3N(Cc3ccccc3F)C2=O)cc1		inconclusive: 10 µM [inhibitor, partial curve, poor fit]
CCc1ccc(-c2cc(C(=O)Nn3cnnc3)c3ccccc3n2)cc1		inconclusive: 0.0126 µM [inhibitor, full curve, poor fit]
Cc1ccc(S(=O)(=O)Nc2cccc(C(=O)NCc3cccnc3)c2)cc1F		active: 3.16 µM
CCCCN1C(=O)C(=O)N(CC(=O)Nc2sc(C)c(C)c2C(=O)OC)C1=O		inconclusive: 3.16 µM [inhibitor, partial curve, poor fit]
Cc1ccnc(NC(=O)c2cccc(S(=O)(=O)N3CCCc4ccccc43)c2)c1		inconclusive: 5.01 µM [inhibitor, single point]
O=C(CCN1CCN(c2ccccc2)CC1)N/N=C/c1ccccc1OC(F)F	inactive: -0.517%	
O=C(Nc1nccs1)c1ccc(NC(=O)C2CC=CCC2C(=O)O)cc1 (stereo unspecified)		inconclusive: 0.891 µM [inhibitor, full curve]
CCc1ccc(Nc2nnc(SCC(=O)NC(=O)c3cccn3C)s2)cc1		inconclusive: 3.98 µM [inhibitor, partial curve, poor fit]
CCOc1ccc(-c2c(C(=O)N/N=C/c3ccc(C)cc3)nnn2-c2nonc2N)cc1		inconclusive: 11.2 µM [inhibitor, partial curve, poor fit]
COc1ccc(S(=O)(=O)N2CCOCC2)cc1C(=O)Nc1ccc(N2CCCCCC2)cc1		inconclusive: 7.94 µM [inhibitor, partial curve, poor fit]
CCOC(=O)N1CCC(=NNC(=O)c2ccccc2F)CC1	inactive: -0.192%	
O=C(Nc1ccc(NC(=O)c2ccc3c(c2)OCO3)cc1)c1cccc(Cl)c1		inconclusive: 3.55 µM [inhibitor, partial curve, poor fit]
CCS(=O)(=O)N1CCC(C(=O)NCCC2=CCCCC2)CC1	inactive: -0.391%	
O=C(Nc1ccc(F)cc1F)c1ccc2c(=O)n3c(nc2c1)CCC3		inconclusive: 5.62 µM [inhibitor, single point]

Carrying on.

Structure (SMILES)	activity change, negative = inhibition	Potency
CCC(C)NC(=O)CN(c1ccc(OC)cc1)S(=O)(=O)c1ccccc1 (stereo unspecified)	inactive: -1.99%	
CN(C)/C=C/C(=O)c1ccc(Br)cc1	inactive: 1.39%	
CN1C(=S)N(c2cccnc2)C(=O)/C1=C\c1ccc(N(C)C)cc1	inactive: 4.95%	
O=C(/C=C/c1ccccc1)Nc1cccc(C(=O)NCCCCc2ccccc2)c1		inconclusive: 11.2 µM [inhibitor, partial curve, poor fit]
Cc1ccc(-c2cn(-c3ccccc3)c3[n+]2CCCS3)cc1		inconclusive: 14.1 µM [inhibitor, partial curve, poor fit] and inconclusive: 3.16 µM [inhibitor, partial curve, poor fit]
CC(=O)Nc1ccc(SCCN2CC[C@@H](C(C)(C)C)CCC2=O)cc1		inconclusive: 11.2 µM [inhibitor, single point]
Cc1noc2ncnc(Oc3ccc(C(C)(C)C)cc3)c12		inconclusive: 0.501 µM [inhibitor, full curve, poor fit]
CC(C)(C)OC(=O)NCCCC[C@H](NC(=O)c1[nH]cnc1C(=O)Nc1ccc(Cl)cc1)C(=O)OC(C)(C)C		inconclusive: 12.6 µM [inhibitor, single point]
Cc1cccc(/C=N/NC(=O)CNc2cccc3ccccc23)n1		inconclusive: 12.6 µM [inhibitor, partial curve, poor fit]
Cc1ccccc1/C=C/C(=O)c1ccc([N+](=O)[O-])o1		inconclusive: 0.891 µM [inhibitor, full curve, poor fit]
O=C(Nc1ccc(-c2csc(Nc3ccc(Cl)cc3)n2)cc1)c1cccc(C(F)(F)F)c1		inconclusive: 31.6 µM [inhibitor, single point]
Cc1ccc(C)c(NC(=O)C(c2ccccc2)N2CCN(CC(=O)N3CCOCC3)CC2)c1 (stereo unspecified)		inconclusive: 6.31 µM [inhibitor, partial curve, poor fit]
CCC(=O)Nc1cccc(-c2ccc(N3CCCCC3)nn2)c1		active: 0.891 µM
CCSc1oc(-c2ccco2)nc1S(=O)(=O)c1ccc(C)cc1		inconclusive: 1.58 µM [inhibitor, full curve, poor fit]
COc1ccc(C(CNC(=O)c2cccc3cccnc23)N(C)C)cc1 (stereo unspecified)	inactive: 2.64%	
CCOc1ccccc1N1CCN(C(=O)c2cc3ccccc3cc2OC)CC1		active: 3.55 µM
CSc1cccc(NC(=O)CSc2nnc(C)s2)c1	inactive: -1.05%	
Cn1c(=O)[nH]c(=O)c2c1nc(NCc1ccco1)n2Cc1ccccc1Cl		inconclusive: 2.51 µM [inhibitor, partial curve]
CCC(C)(C)c1nnc(NC(=O)c2cccc([N+](=O)[O-])c2)s1	inactive: -5.65%	
O=C(Nc1ccc(Cl)cc1)C1CCCC1		inconclusive: 11.2 µM [inhibitor, single point]
Cc1ccc2nc(Cl)c(/C=N/Nc3nc(C)cc(C)n3)c(=O)n2c1		inconclusive: 12.6 µM [inhibitor, partial curve, poor fit]
C=CC(=O)Nc1cccc(Nc2nc(N[C@H]3CC[C@H](N(C)C)CC3)nc3c2ncn3C(C)C)c1		inconclusive: 11.2 µM [inhibitor, partial curve, poor fit]
